Assay results taken from PubChem BioAssay AID248 (DTP/NCI, 2004).
The list shows only some results of the screen, not a fair sample: it is rich in T/C values a quarter to a half above the control, in often repeated tests (any T/C) and in doses without a T/C. Further doses and runs are listed elsewhere. T/C: endpoint of the treated group in % of that of the vehicle group. Some entries give survivors of the animals treated and no T/C: the source files T/C as zero there, which appears to mark a toxic dose or a test without result, not a measured value. Some doses without a T/C left all or most animals alive at the check, yet need not have been tolerated: survival well below the control is almost never listed, so the zero probably covers shortened survival too. Survivors were counted at the toxicity check, usually on the fifth day, unless a day is given; later deaths do not show. Schedules are NCI's codes, taken here to give the interval after Q, in days (D) or hours (H), and the number of doses after X. Some schedules carry Z or #; the key to these is not given. Where survival is the endpoint, the PubChem record calls one and a half times the control and up active, and a quarter to a half above the control has no call in these data; cut-offs in other NCI protocols can differ. Counts like (3×) count equal records among those shown. Some T/C values carry the count of animals alive at the toxicity check (mostly the fifth day); where none is given, no animal had died by that day.

Test system: L1210 leukemia ip in BDF1 mice, survival T/C
Test: NCI In Vivo Anticancer Drug Screen. Data for tumor model L1210 Leukemia (intraperitoneal) in B6D2F1 (BDF1) mice
Conditions: T/C endpoint: mean survival time, higher T/C = longer survival
[1] = dose: 400.0 mg/kg/injection, schedule: Q04DX003 (ip), vehicle: saline with Tween-80
[2] = dose: 100.0 mg/kg/injection, schedule: Q04DX003 (ip), vehicle: saline
[3] = dose: 200.0 mg/kg/injection, schedule: Q04DX003 (ip), vehicle: saline
[4] = dose: 400.0 mg/kg/injection, schedule: Q04DX003 (ip), vehicle: saline

CC1CN=C(c2ccc(NC(=O)c3ccc(C(=O)Nc4ccc(C5=NCC(C)N5)cc4)cc3)cc2)N1 (stereo unspecified)
T/C (dose: 0.5 mg/kg/injection, schedule: Q01DX Z (ip), vehicle: carboxymethylcellulose (CMC)): 137 % of control | T/C (dose: 1.2 mg/kg/injection, schedule: Q01DX Z (ip), vehicle: carboxymethylcellulose (CMC)): 143 % of control | T/C (dose: 2.0 mg/kg/injection, schedule: Q01DX Z (ip), vehicle: saline): 126 % of control | T/C (dose: 4.0 mg/kg/injection, schedule: Q01DX Z (ip), vehicle: saline): 146 % of control | T/C (dose: 30.0 mg/kg/injection, schedule: Q01DX Z (ip), vehicle: saline): 135 % of control | T/C (dose: 49.0 mg/kg/injection, schedule: Q01DX Z (ip), vehicle: carboxymethylcellulose (CMC)): 148 % of control | T/C (dose: 111.0 mg/kg/injection, schedule: Q01DX Z (ip), vehicle: carboxymethylcellulose (CMC)): 135 % of control | T/C (dose: 166.0 mg/kg/injection, schedule: Q01DX Z (ip), vehicle: carboxymethylcellulose (CMC)): 129 % of control | T/C (dose: 250.0 mg/kg/injection, schedule: Q01DX Z (ip), vehicle: carboxymethylcellulose (CMC)): 126 % of control

CCOC(=O)CC/C(=C/c1cccc2ccccc12)[N+](=O)[O-]
survivor count [1]: 0 of 3

Cc1cnc(SCc2ccc(Cl)cc2)nc1N(C)C
survivor count (dose: 100.0 mg/kg/injection, schedule: Q01DX Z (ip), vehicle: methylcellulose (MC)): 5 of 6 | survivor count (dose: 200.0 mg/kg/injection, schedule: Q01DX Z (ip), vehicle: methylcellulose (MC)): 5 of 6

CCCCCCC(=O)/C=C\c1ccccc1
survivor count (dose: 100.0 mg/kg/injection, schedule: Q04DX003 (sc), vehicle: steroid suspending solution): 0 of 6 | survivor count (dose: 200.0 mg/kg/injection, schedule: Q04DX003 (sc), vehicle: steroid suspending solution): 0 of 6 | survivor count (dose: 400.0 mg/kg/injection, schedule: Q04DX003 (sc), vehicle: steroid suspending solution): 0 of 6

CCCOC(=O)C(C)(O)C(Cl)c1ccccc1 (stereo unspecified)
T/C (dose: 50.0 mg/kg/injection, schedule: Q04DX002 (ip), vehicle: saline): 125 % of control | T/C (dose: 200.0 mg/kg/injection, schedule: Q04DX002 (ip), vehicle: saline): 129 % of control

C=CCOC(=O)c1ccccc1N
survivor count (dose: 400.0 mg/kg/injection, schedule: Q01DX009 (ip), vehicle: saline with Tween-80): 0 of 6 | survivor count [1]: 0 of 6

O=C(O)CNC(=O)C(CSCc1ccccc1)NC(=O)OCc1ccccc1 (stereo unspecified)
survivor count (dose: 200.0 mg/kg/injection, schedule: Q04DX003 (ip), vehicle: Klucel (hydroxypropylcellulose) (HPC)): 6 of 6

O=C1NCN(c2ccccc2)C12CCNCC2
survivor count (dose: 200.0 mg/kg/injection, schedule: Q04DX003 (ip), vehicle: saline sonified): 0 of 6 | survivor count (dose: 400.0 mg/kg/injection, schedule: Q04DX003 (ip), vehicle: saline sonified): 0 of 6

Fc1ccc(NC(=S)S)cc1
survivor count [2]: 3 of 6 | survivor count [3]: 0 of 6 | survivor count [4]: 0 of 6

O=C(Nc1ccc(C2=NCCN2)c(Cl)c1)c1cccc(C(=O)Nc2ccc(C3=NCCN3)c(Cl)c2)c1
survivor count (dose: 60.0 mg/kg/injection, schedule: Q01DX Z (ip), vehicle: carboxymethylcellulose (CMC)): 2 of 6 | survivor count (dose: 120.0 mg/kg/injection, schedule: Q01DX Z (ip), vehicle: carboxymethylcellulose (CMC)): 2 of 6

O=C(CCl)NCc1ccc(Cl)cc1
survivor count (dose: 400.0 mg/kg/injection, schedule: Q01DX001 (ip), vehicle: other): 2 of 4

CCn1/c(=N\N=O)sc2ccccc21
survivor count (dose: 200.0 mg/kg/injection, schedule: Q01DX001 (ip), vehicle: Klucel (hydroxypropylcellulose) (HPC)): 1 of 6 | survivor count (dose: 400.0 mg/kg/injection, schedule: Q01DX001 (ip), vehicle: Klucel (hydroxypropylcellulose) (HPC)): 1 of 6

COc1cc2c(cc1OC)C(OC)N(C)c1c-2ccc2cc3c(cc12)OCO3 (stereo unspecified)
T/C (dose: 5.0 mg/kg/injection, schedule: Q01DX009 (ip), vehicle: steroid suspending solution): 134 % of control | T/C (dose: 5.0 mg/kg/injection, schedule: Q01DX009 (ip), vehicle: water): 128 % of control | T/C (dose: 10.0 mg/kg/injection, schedule: Q01DX009 (ip), vehicle: steroid suspending solution): 129 % of control | T/C (dose: 10.0 mg/kg/injection, schedule: Q01DX009 (ip), vehicle: water): 127 % of control | T/C (dose: 20.0 mg/kg/injection, schedule: Q01DX009 (ip), vehicle: saline): 131 % of control | T/C (dose: 20.0 mg/kg/injection, schedule: Q01DX009 (ip), vehicle: water): 134 % of control | T/C (dose: 40.0 mg/kg/injection, schedule: Q01DX009 (ip), vehicle: saline): 131 % of control | T/C (dose: 40.0 mg/kg/injection, schedule: Q01DX009 (ip), vehicle: steroid suspending solution): 133 % of control [3 of 4 alive] | T/C (dose: 40.0 mg/kg/injection, schedule: Q01DX009 (ip), vehicle: water): 148 % of control | T/C (dose: 80.0 mg/kg/injection, schedule: Q01DX009 (ip), vehicle: saline): 147 % of control | T/C (dose: 100.0 mg/kg/injection, schedule: Q01DX009 (ip), vehicle: Klucel (hydroxypropylcellulose) (HPC)): 126 % of control (2×) | T/C (dose: 200.0 mg/kg/injection, schedule: Q04DX002 (ip), vehicle: Klucel (hydroxypropylcellulose) (HPC)): 133 % of control | T/C (dose: 400.0 mg/kg/injection, schedule: Q04DX002 (ip), vehicle: Klucel (hydroxypropylcellulose) (HPC)): 126 % of control

COc1ccccc1OCC(O)COc1ccccc1OC
survivor count [2]: 6 of 6 | survivor count [3]: 6 of 6 | survivor count [4]: 6 of 6
